Measured values: article PMC7819943, “Rice protein-binding microarrays: a tool to detect cis-acting elements near promoter regions in rice”
This is one part of the list.

Chains of the proteins cited; added tags and fusions are not shown.
UniProt Q0JBA9, entry or part of it: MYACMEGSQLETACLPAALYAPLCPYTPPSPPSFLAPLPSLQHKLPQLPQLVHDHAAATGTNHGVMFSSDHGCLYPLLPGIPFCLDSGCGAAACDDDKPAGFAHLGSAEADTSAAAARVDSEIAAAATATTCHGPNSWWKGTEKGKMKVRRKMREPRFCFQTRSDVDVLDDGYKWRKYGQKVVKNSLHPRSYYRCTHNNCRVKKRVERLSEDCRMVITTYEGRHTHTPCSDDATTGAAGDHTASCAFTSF

Target: OsWRKY34 (Oryza sativa, UniProt Q0JBA9 1-250)
Experiment: protein-binding microarray (RPBM); PBS, 2% BSA, 51.3 ng/ul salmon testes DNA, 50 uM zinc acetate, 200 nM TF, 25 C, 1 h; high values mean tight binding
Settings: protein: recombinant; tags: N-terminal polyhistidine and DsRed monomer fusion (pET32a); label: CyDye5-dUTP incorporated in the synthesized complementary strand; 3' TTTTT single-stranded linker to array surface; dsDNA, one strand shown
Outline: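 Binding signal is reported as fluorescence intensity per feature (arbitrary units) from an Axon 4000B scanner. Incubation used 200 nM of each Ni–NTA-purified, N-terminally polyhistidine- and DsRed-fused transcription factor from E. coli BL21-CodonPlus on a double-stranded custom Agilent array for 1 h at 25 °C, with 50 µM zinc acetate in the buffer, followed by washing.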

Row | Sequence | binding signal
1 | CCACGTCCTCGGTTCCATTCGGACTCCCGTACACCGCCCACGGAGTCACCTAGTGCAG | 9160 fluorescence intensity (a.u.)
2 | GCCTCCATCCACCTCGCCCATCCCTACACTCTACTACTCCCGGAGTCACCTAGTGCAG | 8670 fluorescence intensity (a.u.)
3 | CTAGTTGCTCCTAACTTGGCCTACTGTCCTCCATCTCCAACGGAGTCACCTAGTGCAG | 9280 fluorescence intensity (a.u.)
4 | TGGGTGGGTGGTTGCCACTTGGACACGTAGCCGGCGCCCCCGGAGTCACCTAGTGCAG | 12000 fluorescence intensity (a.u.)
5 | GTACTACTCCAATCATTCCTCATTTAAATTTTTTTCTCAACGGAGTCACCTAGTGCAG | 8090 fluorescence intensity (a.u.)
6 | AGCAGAACTCCTAGAAAGTAATGTTCGTTGACTTAAGTTCCGGAGTCACCTAGTGCAG | 8450 fluorescence intensity (a.u.)
7 | GTTCCACAGTCCACACCCACGCACACAAGCAAGCGGCCTCCGGAGTCACCTAGTGCAG | 11000 fluorescence intensity (a.u.)
8 | CCCTGCTGCTCCAAGCTTATCCTCTCCTTCTCTCTCCTCTCGGAGTCACCTAGTGCAG | 9540 fluorescence intensity (a.u.)
9 | TGTTTATGGTGATATCTTCTGTTACGTTATATTTCACTGCCGGAGTCACCTAGTGCAG | 12000 fluorescence intensity (a.u.)
10 | AACCCGCTTCCCAAATCCGGCGCCCGTACGCCCGCCCGCCCGGAGTCACCTAGTGCAG | 8390 fluorescence intensity (a.u.)
11 | CTTCTCTTGTATTGTAATACTAATATTGGATTACTGCTTCCGGAGTCACCTAGTGCAG | 8270 fluorescence intensity (a.u.)
12 | GAGAGCGCAATTTAGTCTGTCCATTTAAATTCCTAGTACACGGAGTCACCTAGTGCAG | 9720 fluorescence intensity (a.u.)
13 | TGAGCCTGTAACTTTTTCATTCATACGACTATTTTGTGATCGGAGTCACCTAGTGCAG | 9910 fluorescence intensity (a.u.)
14 | ACATACATTTTTCTTGCAATGACTTTTACTGAATAATTTACGGAGTCACCTAGTGCAG | 8170 fluorescence intensity (a.u.)
15 | CTATCTCTCGTTGACTCAGATCACTCCAATCATCATGTCCCGGAGTCACCTAGTGCAG | 13300 fluorescence intensity (a.u.)
16 | GAGTAAGTATGTCATGTGGGCTTCCACAAATTTTTTTTATCGGAGTCACCTAGTGCAG | 8550 fluorescence intensity (a.u.)
17 | CCACAAGACGGTGGTTTTCGGCAGGGAGAGGGGATTTGCTCGGAGTCACCTAGTGCAG | 9220 fluorescence intensity (a.u.)
18 | GTCTCCAAGCATCCATTTTCTACACCTTGGACTAATGCACCGGAGTCACCTAGTGCAG | 9910 fluorescence intensity (a.u.)
19 | GGATGGTGTGGATGTTGGTGGCGCACTCCCGCGTGTACTACGGAGTCACCTAGTGCAG | 9360 fluorescence intensity (a.u.)
20 | GCATGTCCAGCATCTGTTTGCTTTATGTTCCTCGATTAATCGGAGTCACCTAGTGCAG | 9400 fluorescence intensity (a.u.)
21 | CTCCTCCGTCCACCGCAGCTGGCTTCACCTTTTCCTCGGTCGGAGTCACCTAGTGCAG | 8230 fluorescence intensity (a.u.)
22 | GGGTTTGGGTTTTTAGGTTTGGGGAGTTGGGCTGTGTTTACGGAGTCACCTAGTGCAG | 22100 fluorescence intensity (a.u.)
23 | TTTCACAGGGCATTTCACCGAATATATCATGCTCATCAATCGGAGTCACCTAGTGCAG | 9260 fluorescence intensity (a.u.)
24 | TCTCTCTCTCTTTCCTTTTCTTTGACCATCTCTTCTCTCTCGGAGTCACCTAGTGCAG | 9060 fluorescence intensity (a.u.)
25 | CTAAAACTCAACATATAAACATGCCACCTCATCATCTATACGGAGTCACCTAGTGCAG | 8110 fluorescence intensity (a.u.)
26 | ACTCCATTTACGGGCAACTCTTGCTTGCGCAACGGGCCTTCGGAGTCACCTAGTGCAG | 8790 fluorescence intensity (a.u.)
27 | TTCTACAGTTCAATCAAACGGTCATTCCTATGTTTTTCCTCGGAGTCACCTAGTGCAG | 9450 fluorescence intensity (a.u.)

Row | Sequence | binding signal
28 | AACTCAATTAGTCTTAATGAATTTGTCGTTTTGCATGCCGCGGAGTCACCTAGTGCAG | 9240 fluorescence intensity (a.u.)
29 | TTGTTCTTGCTGCATTTCTTCTTCTCGTTTTTTTTTCTTTCGGAGTCACCTAGTGCAG | 16900 fluorescence intensity (a.u.)
30 | GTGGGCGGGGAGGGCGGATCTGCCACCGTCGAGCCGCGGGCGGAGTCACCTAGTGCAG | 10100 fluorescence intensity (a.u.)
31 | ACATGGTTGCTCATTGCCACTGGGCTGCTTCAATTCGGTTCGGAGTCACCTAGTGCAG | 8380 fluorescence intensity (a.u.)
32 | CTCCTCTGGGCGCGCGCTGTGGCGGTGGCGTTCACGTTCTCGGAGTCACCTAGTGCAG | 8490 fluorescence intensity (a.u.)
33 | GATCCGACTCCTACTTCTAACGTAGATTTTCGGCCTTTATCGGAGTCACCTAGTGCAG | 8370 fluorescence intensity (a.u.)
34 | TTGCAAATGCAACCCTATTATGCCATCCTTTGTTATCCTGCGGAGTCACCTAGTGCAG | 9550 fluorescence intensity (a.u.)
35 | GGTCGCCGCCGTGGGTTATGTTTGTCTATCCTGCCGGCTTCGGAGTCACCTAGTGCAG | 9640 fluorescence intensity (a.u.)
36 | TCTCTCCAAATTGTTATCCATTTCGTCTGTGTTCAGCATCCGGAGTCACCTAGTGCAG | 12500 fluorescence intensity (a.u.)
37 | GACTTTTTAGCACATGTTTGACCGTTCGTCTTATTCAAAACGGAGTCACCTAGTGCAG | 10800 fluorescence intensity (a.u.)
38 | GCTTTACTCTTCCTAGGAATATATCTGTGTGTCCAGAAAACGGAGTCACCTAGTGCAG | 9610 fluorescence intensity (a.u.)
39 | GCTAATTCCTTCTTGCATGTTTTCATGGGCCTGGTTGCCACGGAGTCACCTAGTGCAG | 8960 fluorescence intensity (a.u.)
40 | AAGCCAACCCAACCCGCACCTTCTCGCTGCTTCTACTACTCGGAGTCACCTAGTGCAG | 13100 fluorescence intensity (a.u.)
41 | CGTACCTAGTCAAACACGCGTCTATATATCAACCTACCTACGGAGTCACCTAGTGCAG | 10800 fluorescence intensity (a.u.)
42 | CAAGAACCCTTCTTTATAGATCTGTGCCCTTGCTGTTCATCGGAGTCACCTAGTGCAG | 10700 fluorescence intensity (a.u.)
43 | TCACTTCCCTAGTTCCCTTGCTGCAGTTGCGTTGCACCAGCGGAGTCACCTAGTGCAG | 8410 fluorescence intensity (a.u.)
44 | GGCCGGCCCGTCGCTCCACGCCTCGGATCACCACTGTCTTCGGAGTCACCTAGTGCAG | 8580 fluorescence intensity (a.u.)
45 | GGTGACAGGCAGTCCACATCCTTATCGCTCTTTGCTAGTTCGGAGTCACCTAGTGCAG | 8510 fluorescence intensity (a.u.)
46 | TTTCTTTATAATACGATGTTGACTGTATCAACTGTTTCTTCGGAGTCACCTAGTGCAG | 8890 fluorescence intensity (a.u.)
47 | TCCTCGACACAATTCCAAAGTGCACTTCTCCACTTCACTCCGGAGTCACCTAGTGCAG | 8070 fluorescence intensity (a.u.)
48 | CGACTCCCACACGCCATGCCCATCGCGCCCGCGGCTTGCACGGAGTCACCTAGTGCAG | 8240 fluorescence intensity (a.u.)
49 | TTGTTCACCTCACCTCAGCTCGTCTCTCTGACTTTGATCTCGGAGTCACCTAGTGCAG | 9320 fluorescence intensity (a.u.)
50 | ATGGACCGCCACCTCGCGCCGAGCTTCCAGATCCCGCCGGCGGAGTCACCTAGTGCAG | 9900 fluorescence intensity (a.u.)
51 | CGGTATCATCTCATCTCATCTCAATTTCTCCTGTTGTGTTCGGAGTCACCTAGTGCAG | 8290 fluorescence intensity (a.u.)
52 | CACTTGAGCCCCATATGTTTTTTTTTTCTAATGCCACGTCCGGAGTCACCTAGTGCAG | 8880 fluorescence intensity (a.u.)
53 | GCTGTGTTCGATACCCTTGAGTTCCTCGTGTACGCTTTTCCGGAGTCACCTAGTGCAG | 9270 fluorescence intensity (a.u.)
54 | AAACCCGCGCCTCCTCCGCTCTCGTCCGTCGCTTCGGTTCCGGAGTCACCTAGTGCAG | 12800 fluorescence intensity (a.u.)

2 records picked at random from the list so far, as already listed:
Row | Sequence | binding signal
47 | TCCTCGACACAATTCCAAAGTGCACTTCTCCACTTCACTCCGGAGTCACCTAGTGCAG | 8070 fluorescence intensity (a.u.)
33 | GATCCGACTCCTACTTCTAACGTAGATTTTCGGCCTTTATCGGAGTCACCTAGTGCAG | 8370 fluorescence intensity (a.u.)
